Reference: PubChem BioAssay AID504808 (Drosophila RNAi Screening Center, 2011)

Purpose: 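Fly genes required to hold E2F transcription in check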 (primary screen)
System: Drosophila S2 cells
Reagent: long dsRNA against Drosophila genes
Measured: 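Firefly luciferase driven by E2F sites, normalised to Renilla luciferase on the same minimal promoter, measured by plate reader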
Scale: E2F firefly: higher = more E2F reporter activity; Renilla normaliser: higher = more normaliser reporter signal
Hit rule: 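Called active if the normalised E2F reporter went up by over 50%; the cutoff is arbitrary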
In all, the deposit lists about 21,000 reagents; below is a random part of those with a known target gene and a result. Of all reagents, 18 (0.084%) are marked active. 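Raw counts without plate normalisation, one of two replicates; the ratio scores behind the calls were not deposited.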 Names joined by + are all predicted targets of the reagent. Not given: the amount of reagent, the time to read-out.

| Target gene | dsRNA | E2F firefly, rep 1 | Renilla normaliser, rep 1 | call |
| --- | --- | --- | --- | --- |
| CG31279 | DRSC13158 | 84154 | 2911 | inactive |
| Obp58c (Odorant-binding protein 58c) | DRSC04166 | 1.05e5 | 4688 | inactive |
| CG18508 | DRSC18155 | 1.31e5 | 7363 | inactive |
| jdp | DRSC16975 | 1859 | 968 | inactive |
| Ccn | DRSC09504 | 1.14e5 | 4294 | inactive |
| Ccn | DRSC09506 | 1.15e5 | 4975 | inactive |
| Ccn | DRSC10062 | 70239 | 3738 | inactive |
| Ccn | DRSC10063 | 1.29e5 | 7271 | inactive |
| CG17230 | DRSC15203 | 67279 | 2935 | inactive |
| CG13538 | DRSC04180 | 1.01e5 | 4520 | inactive |
| CG5565 | DRSC00690 | 1.68e5 | 5677 | inactive |
| hpRNA:CR32205 (hairpin RNA:CR32205) | DRSC09890 | 1.40e5 | 7729 | inactive |
| ppk20 (pickpocket 20) | DRSC16260 | 1.23e5 | 6302 | inactive |
| ems (empty spiracles) | DRSC16941 | 98832 | 6509 | inactive |
| gpp (grappa) | DRSC12515 | 1.12e5 | 5701 | inactive |
| gpp (grappa) | DRSC12516 | 1.10e5 | 4828 | inactive |
| CG9269 | DRSC16465 | 1.22e5 | 6815 | inactive |
| Obp83a (Odorant-binding protein 83a) | DRSC12362 | 1.30e5 | 7313 | inactive |
| CG33124 | DRSC00298 | 1.63e5 | 5115 | inactive |
| ClC-c (Chloride channel-c) | DRSC10499 | 67993 | 3482 | inactive |
| CG10038 | DRSC14178 | 64719 | 3563 | inactive |
| CG17982 | DRSC18143 | 1.33e5 | 7168 | inactive |
| CG15922 | DRSC15128 | 1.27e5 | 6795 | inactive |
| CR42546 (pseudo) | DRSC03711 | 1.00e5 | 4942 | inactive |
| Tmf (TATA element modulatory factor) | DRSC18368 | 47919 | 3268 | inactive |
| CG6271 | DRSC16006 | 1836 | 1036 | inactive |
| Git (G protein-coupled receptor kinase interacting ArfGAP) | DRSC06620 | 3206 | 198 | inactive |
| Asap (ArfGAP with SH3 domain, ankyrin repeat and PH domain) | DRSC06493 | 1.52e5 | 4858 | inactive |
| Asap (ArfGAP with SH3 domain, ankyrin repeat and PH domain) | DRSC06830 | 2842 | 223 | inactive |
| Psa (Puromycin sensitive aminopeptidase) | DRSC08152 | 73239 | 3149 | inactive |
| frtz (fritz) | DRSC00512 | 1.75e5 | 5455 | inactive |
| Sprn (Spermitin) | DRSC10132 | 1.34e5 | 7178 | inactive |
| jtb (jetboil) | DRSC06868 | 1.45e5 | 4986 | inactive |
| CG33221 (retired record) | DRSC21201 | 71446 | 3849 | inactive |
| CG18586 | DRSC10325 | 93542 | 3931 | inactive |
| RtcB (RtcB RNA ligase) | DRSC03280 | 99362 | 4371 | inactive |
| CG31624 | DRSC02617 | 83665 | 3562 | inactive |
| CG13579 | DRSC04215 | 1.19e5 | 4602 | inactive |
| CG1789 | DRSC18140 | 7582 | 884 | inactive |
| Lrch (Leucine-rich-repeats and calponin homology domain protein) | DRSC02996 | 83301 | 3483 | inactive |
| Ntmt (N-terminal methyltransferase) | DRSC06624 | 1.33e5 | 4884 | inactive |

Next part (8 carried over from the part before).
| Target gene | dsRNA | E2F firefly, rep 1 | Renilla normaliser, rep 1 | call |
| --- | --- | --- | --- | --- |
| CG33221 (retired record) | DRSC21201 | 71446 | 3849 | inactive |
| CG18586 | DRSC10325 | 93542 | 3931 | inactive |
| RtcB (RtcB RNA ligase) | DRSC03280 | 99362 | 4371 | inactive |
| CG31624 | DRSC02617 | 83665 | 3562 | inactive |
| CG13579 | DRSC04215 | 1.19e5 | 4602 | inactive |
| CG1789 | DRSC18140 | 7582 | 884 | inactive |
| Lrch (Leucine-rich-repeats and calponin homology domain protein) | DRSC02996 | 83301 | 3483 | inactive |
| Ntmt (N-terminal methyltransferase) | DRSC06624 | 1.33e5 | 4884 | inactive |
| CG15712 | DRSC06583 | 1.38e5 | 4888 | inactive |
| CG12224 | DRSC14480 | 1.36e5 | 5919 | inactive |
| ZnT41F (Zinc transporter 41F) | DRSC04850 | 86726 | 3561 | inactive |
| Unc-76 (Uncoordinated 76) | DRSC18193 | 1.28e5 | 6544 | inactive |
| Unc-76 (Uncoordinated 76) | DRSC18560 | 1.16e5 | 6446 | inactive |
| CG4563 | DRSC04474 | 1.10e5 | 4587 | inactive |
| CG9452 | DRSC11075 | 1.42e5 | 7762 | inactive |
| CG18808 | DRSC08539 | 1.02e5 | 4316 | inactive |
| CG33791 + CG12105 + CG18170 | DRSC08387 | 80642 | 3552 | inactive |
| Nse1 (Non-SMC element 1) | DRSC02147 | 1.08e5 | 4384 | inactive |
| Scsalpha1 (Succinyl-coenzyme A synthetase alpha subunit 1) | DRSC08698 | 71809 | 3224 | inactive |
| CSN3 (COP9 signalosome subunit 3) | DRSC11859 | 82633 | 5080 | inactive |
| Mal-A6 (Maltase A6) | DRSC07233 | 1.36e5 | 5442 | inactive |
| Cdc5 (Cell division cycle 5) | DRSC08577 | 49353 | 3693 | inactive |
| CG13127 | DRSC02223 | 1.57e5 | 5287 | inactive |
| fmt (fiery mountain) | DRSC09717 | 74907 | 3032 | inactive |
| frj (farjavit) | DRSC03250 | 71027 | 3430 | inactive |
| Teh4 (tipE homolog 4) | DRSC08457 | 98130 | 4184 | inactive |
| CG7724 | DRSC10905 | 75197 | 3414 | inactive |
| Obp58b (Odorant-binding protein 58b) | DRSC04161 | 95428 | 4316 | inactive |
| ND-51L2 (NADH dehydrogenase (ubiquinone) 51 kDa subunit-like 2) | DRSC07080 | 98382 | 4197 | inactive |
| CG31200 | DRSC15285 | 1.41e5 | 7425 | inactive |
| ear (ENL/AF9-related) | DRSC15675 | 53306 | 3022 | inactive |
| CG15177 | DRSC12557 | 1.26e5 | 5489 | inactive |
| CG15803 | DRSC15121 | 1.54e5 | 8066 | inactive |
| Agpat4 (1-Acylglycerol-3-phosphate O-acyltransferase 4) | DRSC10446 | 1.63e5 | 7717 | inactive |
| Arr2 (Arrestin 2) | DRSC09670 | 97746 | 3728 | inactive |
| Sgs4 (Salivary gland secretion 4) | DRSC18715 | 1.32e5 | 6114 | inactive |
| Zwilch | DRSC15376 | 1.32e5 | 6592 | inactive |
| CG31612 | DRSC03697 | 99051 | 4521 | inactive |
| CG31612 | DRSC03698 | 1.03e5 | 3856 | inactive |
| Sugb (Sugar baby) | DRSC10815 | 67733 | 3251 | inactive |
| CG9550 | DRSC03262 | 1.54e5 | 5282 | inactive |
| CG13829 | DRSC14679 | 1.08e5 | 6320 | inactive |
| CG42506 (retired record) + CG43759 | DRSC19464 | 1.57e5 | 5489 | inactive |
| CG42506 (retired record) + CG43759 | DRSC19543 | 1.32e5 | 6840 | inactive |
| Mst84Dd (Male-specific RNA 84Dd) | DRSC12600 | 1.28e5 | 5712 | inactive |
| CG31419 | DRSC15771 | 1.12e5 | 6258 | inactive |
| mRpL12 (mitochondrial ribosomal protein L12) | DRSC10467 | 73274 | 3506 | inactive |
| CG10734 | DRSC05998 | 1.48e5 | 5643 | inactive |
| homer | DRSC03547 | 92819 | 3520 | inactive |
| mRpL37 (mitochondrial ribosomal protein L37) | DRSC16062 | 1.51e5 | 7139 | inactive |
| tld (tolloid) | DRSC17084 | 1.17e5 | 6559 | inactive |
